IC50 data for one molecule are collected here from article PMC3640759 (Molecular and biochemical parasitology, 2013).

The subject of the assay is P. falciparum 3D7 strain stage III–V gametocytes. The experiment in a line: alamarBlue gametocyte viability assay, 1,536-well plate format. The class given is cell-based. Conditions: Plasmodium falciparum, 3D7, 72 h, read-out: IC50 (gametocyte assay). In general terms: The colour change of resazurin is a common sign of viable cells or microbes.

For orientation: IC50 means the concentration needed to halve the response being measured. Turning to `Clc1ccccc1C(c1ccccc1)(c1ccccc1)n1ccnc1` [Clotrimazole], the IC50 came to 2440 nM.
